According to paper PMC8546149, “Antibiotic-chemoattractants enhance neutrophil clearance of Staphylococcus aureus” (Nature Communications, 2021):
Results are given in words; binding and its absence hold for the method and conditions named. Some results given as binding are weak or reduced against the parent protein; the word gives no strength.

Amino acid sequences for entries named in this document (tags omitted).
UniProt P25090: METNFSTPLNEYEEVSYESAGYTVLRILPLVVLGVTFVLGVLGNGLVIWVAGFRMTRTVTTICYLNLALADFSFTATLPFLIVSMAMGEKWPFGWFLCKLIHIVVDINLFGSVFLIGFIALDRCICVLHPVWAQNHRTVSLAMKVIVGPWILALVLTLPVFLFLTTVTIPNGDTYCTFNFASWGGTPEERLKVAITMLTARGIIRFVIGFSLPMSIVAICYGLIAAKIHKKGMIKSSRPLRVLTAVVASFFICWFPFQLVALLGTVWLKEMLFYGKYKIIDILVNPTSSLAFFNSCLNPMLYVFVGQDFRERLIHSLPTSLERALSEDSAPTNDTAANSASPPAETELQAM

Biological target: formyl peptide receptor 2 (FPR2) (human (endogenous in neutrophils)) (UniProt P25090)
Assay: competition binding of a fluorescent ligand on cells (plate reader); RhB-PB10 (15 uM) preincubated with human neutrophils (5 x 10^6/mL) in Bis-Tris buffer pH 6 for 1 h, washed twice, then 5 min with 8 uM test peptide, washed; Rhodamine B fluorescence left on the cells read at ex 550 nm, em 585 nm; only the binder purified

Binder: MIVIL (N-formyl on the N-terminal methionine) [fMIVIL]
- binding: binds
